{
  "source": "paper PMC3459904",
  "about": "“Inhibition of HIV-1 Infection by Human α-Defensin-5, a Natural Antimicrobial Peptide Expressed in the Genital and Intestinal Mucosae” (PLoS ONE, 2012)",
  "target": "recombinant HIV-1 gp120 from isolate BaL (HIV-1 isolate BaL)",
  "assay": "ELISA; competition: HD5 at 5.6 µM added before a panel of anti-gp120 mAbs (5 µg/ml each) on plastic-immobilised gp120BaL (coated at 2 µg/mL); for 17b and 48d the gp120 was preincubated with sCD4; both purified",
  "note": "No constants are given. Whether binding was seen depends on the method and setting. Binding can be weak; no strength is given.",
  "data": [
    {"binder": "ATCYCRTGRCATRESLSGVCEISGRLYRLCCR (peptide, UniProt Q01523 63-94)", "note": "[human α-defensin-5]", "values": [
      {"measurement": "binding", "value": "binds"}
    ]}
  ]
}
